The text below walks through data of the supplement of paper PMC5949888.

Most values lie at the floor of the assay. Slopes are relative: functional sequences can read slightly below zero.

The subject of the series is Saccharomyces cerevisiae PS128 hsf1 delta, HSF1(1-493) fusion. Kind of series: growth estimate (transactivation domain function in HSF1 fusion, heat-shock survival) (a.u. (slope of normalised read count over time)); higher = stronger growth at 37°C, i.e. more transactivation activity. To be noted: library: random library.
For PVE, the growth estimate was less than -0.25. As for KIVYALIGGDGLDERFQGSG, the growth estimate was -0.246.

On to LLLRRARRPKASLQGHNITG, for which the growth estimate is less than -0.25. Under RYSINITTALANGRNVSLAG stands less than -0.25. In the case of RVSGLSLGFLLYLFITRRAG it was less than -0.25. Take RVREAFAHSDLVRRDKVTTS: the growth estimate is less than -0.25. Regarding MVWRIPSACRHYPWGPEVSQ, the growth estimate is less than -0.25. Under RQDTTRLKPCPLEGYSFIVS stands less than -0.25; under IRRYSESW, less than -0.25; under LNAAKPDS, less than -0.25. For NKADAGHVWMGGSRPSHFFF, the growth estimate was less than -0.25. In the case of VQW, the growth estimate was less than -0.25. On to AASGNGIRSVVLTAVPVLPS, for which the growth estimate is less than -0.25. With TDAMAILFVT, the growth estimate is less than -0.25. TIVCTGITQTLFNQGEEC: the growth estimate was -0.19. Take QRCSSPTSYLNGCPT: the growth estimate was less than -0.25.

QCLSRG: the growth estimate was less than -0.25. With GIGKEGKPSATYVASHTRPY, the growth estimate is -0.246. With HLRSKTRCSEIRVNR, the growth estimate was less than -0.25.

Take RGVS: the growth estimate is less than -0.25. For VRMIPRPQSEY, the growth estimate is less than -0.25. In the case of AQANLVSGLITIHQLLPSCS it was less than -0.25. In the case of LKVPPGQCEGCRPIKSKQRG it was less than -0.25; in that of CGQYSHAPSSG, -0.243.

Consider SHTD, for which the growth estimate is -0.241. NGQPGSSPLSR: the growth estimate is less than -0.25. On to VHKGRHFVHLMTYESVDWV, for which the growth estimate is less than -0.25. Consider ENWQGRRSGRAGSMQQCLCG, for which the growth estimate was less than -0.25.

As for SFDRS, the growth estimate was less than -0.25. In the case of VIGARHGQGSGWAPSGSVPV it was less than -0.25; in that of QTGSVTRQMMLLQTVNALGW, -0.243.

With MPFTRKTSRVKRSAPDTSLL, the growth estimate is less than -0.25. Regarding VGFRISFRGPRLPIAKRGR, the growth estimate is less than -0.25.

As to NNASRGL, the growth estimate was less than -0.25. Consider GLLWLEGVLLNVNIAIKNDI, for which the growth estimate is less than -0.25.

In the case of TTAHTCCRPREGEQADVISR, the growth estimate is less than -0.25. As for EVLSGTKAKQSSLGVSSVAT, the growth estimate is less than -0.25. As to GVLTFRSEVLKIG, the growth estimate is less than -0.25. For SLYANSESSPFNPVLTQGCK, the growth estimate was less than -0.25. Turning to WRVVESPSTVSDCGYILSPP, the growth estimate is less than -0.25. In the case of VGSIGAAIHNYGDRVCGKKR, the growth estimate is less than -0.25. In the case of LERG, the growth estimate was less than -0.25.

Consider RLAVAHRDTVEPIMHSLVGS, for which the growth estimate is less than -0.25. As to SIGVKLESVRIAYRAQLSPA, the growth estimate is less than -0.25. Take KSRLLVGGRPFGRSLRQSLG: the growth estimate was less than -0.25. As to AQSSAQCCTGRDSLIPGDRL, the growth estimate is less than -0.25. In the case of LKSKVRVRM it was less than -0.25.

Turning to VDTTV, the growth estimate was less than -0.25. In the case of WALENGRYALKAALHNFY, the growth estimate is less than -0.25. Under GHSPLLH stands less than -0.25; under QRSMSDPFLVEAC, less than -0.25; under RCFRHRINHKLFS, less than -0.25. On to PAIE, for which the growth estimate is less than -0.25. Under AKFDCLMVIEHFGMYIDL stands less than -0.25.

Take SGLFEVVYICSNRLLLLPHA: the growth estimate is less than -0.25. For GFCDSPMT, the growth estimate was less than -0.25. Under VPTTVWLKYGIDQCDITNSP stands less than -0.25. On to QIPSSLPLLLSHVLTQRSEC, for which the growth estimate is less than -0.25. For DEWSYWVEFPPRGARISVGG, the growth estimate is less than -0.25. Under SMFEFRESVSLEV stands less than -0.25. Regarding LIPAGTSSDLDTRLRYCTLG, the growth estimate is less than -0.25. Under HEMYPVHRLLLIQQKNGLQH stands less than -0.25. Turning to SAMSLPRLQGDTPPWPRVAN, the growth estimate is less than -0.25. As to STVRTGSKPVSPSTLRKPHI, the growth estimate was less than -0.25. For the substance RGAS, the growth estimate is less than -0.25. For WAVPEPLIATARSLLADPSG, the growth estimate was -0.208. For SAANSTNTSSVQ, the growth estimate is less than -0.25. With NDRLDRCVSFTTECPTLILD, the growth estimate is less than -0.25. As to TVAQLATGGWFLRRCEHGYS, the growth estimate is less than -0.25. Turning to PIALAEVSVKALLIFWLLDS, the growth estimate is -0.245. KWSRVILPTRSGEYGAVTLP: the growth estimate was less than -0.25. Consider FRG, for which the growth estimate was less than -0.25. With RSTAVIICCSMKIRIRGDQP, the growth estimate was less than -0.25. For RLRFCVAVLRNPGVSPSARG, the growth estimate is less than -0.25. Take RGRVI: the growth estimate was less than -0.25.

In the case of VAVALPSTRITIVRQPRYLR, the growth estimate was less than -0.25. In the case of VPRESGWVSTSVYSGASF it was less than -0.25; in that of TAILPK, less than -0.25; in that of TCGVRKALYRLKECMLRVGS, less than -0.25. NYAHIRSRSYRSERSTIFTA: the growth estimate was less than -0.25.

With GHVHAAAVAREGPQHNLPYP, the growth estimate is less than -0.25. As for LQVQPVVRAVRPSGLEGDWQ, the growth estimate was less than -0.25. As to RPRPGILGRHSASEWREDTP, the growth estimate was less than -0.25.

In the case of YRVR, the growth estimate is less than -0.25. For KCCPYNGGTRQFPLG, the growth estimate is less than -0.25. With RNRIDGGWRSGKLPPLKRST, the growth estimate was less than -0.25. SSRRRDLPTGAGPRLRRALT: the growth estimate is less than -0.25. Take PIEELQV: the growth estimate was less than -0.25. For QTASAVKGSWPIPPQSFFHP, the growth estimate was less than -0.25. In the case of NGRMQS, the growth estimate was less than -0.25. Under NRNRFRCSRYRLTPSSQVVP stands less than -0.25. In the case of ESISRYIKRLRGDQT it was -0.246; in that of SDGGQEA, less than -0.25. In the case of LAQALRYSRRGVLRSTTTGP it was less than -0.25; in that of YWSL, less than -0.253; in that of PPTPGYGHVEPPLGKVTSQV, less than -0.25. On to NVGRECVVLY, for which the growth estimate was less than -0.25.

Regarding YIRRVY, the growth estimate was less than -0.25. Regarding VVRAVAGDCNSGTG, the growth estimate was less than -0.25. For the substance LESESNIGLLSVRRLVKEVM, the growth estimate was less than -0.25. Under CGATSTGSSGPT stands less than -0.25; under NARGYYRQENRAGGMTHQPQ, less than -0.25; under EPDSAAAFDYGTSRDGLVNV, less than -0.25. In the case of TSAISFLFGRATSSDAIQAA, the growth estimate is less than -0.25.

Regarding RNCPAKLKQGKATHRY, the growth estimate is less than -0.25. Turning to GVKFDKTSGPLGVHRPACLL, the growth estimate is less than -0.25. Under TTIVPVGEVFV stands -0.189; under PALEMWLGARIGPSPCQRSV, -0.246; under VCIVCPLLWTLLDTGPFHQS, less than -0.25.

On to NLPKGEFGGPGVRGGLSSTA, for which the growth estimate was less than -0.25. Take LHHPVGASVHGPYVPGVVLH: the growth estimate was less than -0.25. In the case of KLRGVRHYDVYTVGGDPSRV, the growth estimate was less than -0.25.
